Part of at least one peptide drawing is inferred or uncertain, most often the ends. No end group written: not given here.
Key:
[1] = test system: 8 Δ ET [16-29]; experiment: Test of competitive binding: competition with Biotin-ET [1-32] for 8 Δ ET [16-29]-coated wells; details: 8 Δ ET [16-29] 0.5 microg/ml, Biotin-ET [1-32] 0.2 microg/ml; competitor 1 to 1,000 microg/ml
[2] = test system: 8 Δ ET [16-29]; experiment: Incubation of Big Endothelin fragments with immobilized 8 Δ ET [16-29] (specificity); assay type: binding
[3] = test system: 8 Δ ET [16-29]; experiment: Relative affinity by elution from the 8 Δ ET [16-29] affinity column at high ionic strength; assay type: binding

HLDIIW [ET [16-21]]
competition of the binding between Biotin-ET [1-32] and 8 Δ ET [16-29] [1]: no appreciable binding competition
affinity towards the peptide 8 Δ ET [16-29] [2]: very low affinity

HLDIIWVNTPEHIV [ET [16-29], HLDIIWVNTPEHIV]
competition of the binding between Biotin-ET [1-32] and 8 Δ ET [16-29] [1]: capable of competition
elution delay ([3]; 8 Δ ET [16-29] column, 1M NH4Ac pH 5,7, 1.0 ml/min): 3 mL
dissociation constant relative to that of the multimeric peptide ([3]; calculated from elution volumes on the 8 Δ ET [16-29] column): at least 50 times

VNTPEHIVPYG [22-32]
affinity towards the peptide 8 Δ ET [16-29] [2]: very low affinity

— patent EP0751225B1, “Process for the identification of proteolytic activities and/or inhibitors thereof” (TECNOGEN S.C.P.A., priority 1990, dated 1992)
